Assay results taken from the supplement of paper PMC4604168 (melanoma cell lines).
The list shows a part of the results. Many values rest on one well or one pass, so single values are uncertain.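 Imaging used 1,536-well plates; nuclei positive for cleaved PARP by antibody were divided by total DNA-stained nuclei to yield the apoptosis fraction. Doses for screening kept most cells viable, and cell lines differ markedly in resting and induced cleaved-PARP levels.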

test system: IST-MEL1; experiment: cleaved PARP positive nuclei fraction relative to DMSO control; melanoma cells; higher = more apoptosis; conditions: library dose: low library concentration; 72 h

| Compound | cleaved PARP positive nuclei fraction [%] |
| --- | --- |
| O=C(Nc1cccc(Cl)c1)Nc1ncc(CCNc2ncnc3ccsc23)s1 + COc1ccc(COc2ccc(Cc3cnc(N)nc3N)cc2OC)cc1 [GW2580] (first compound 0.0008 µM, partner dose 1 µM) | 95.2 |
| Cc1nc(Nc2ncc(C(=O)Nc3c(C)cccc3Cl)s2)cc(N2CCN(CCO)CC2)n1 [dasatanib] + O=C1NC(=O)/C(=C/c2ccc(-c3ccc(F)cc3O)o2)S1 [AS252424] (first compound 0.004 µM, partner dose 1 µM) | 89.8 |
| C[C@]1(c2nc3c(C(N)=O)cccc3[nH]2)CCCN1 [Veliparib] + Cc1cc([N+](=O)[O-])ccc1NS(=O)(=O)c1cc(Cl)ccc1Cl [FH535] (first compound 1.4 µM, partner dose 1 µM) | 111 |
| C[C@@H]1CCN(C(=O)CC#N)C[C@@H]1N(C)c1ncnc2[nH]ccc12 + COc1cc2ncnc(Nc3ccc(Oc4ccccc4)cc3)c2cc1OC [SrcI1] (first compound 1 µM, partner dose 2 µM) | 33.6 |
| CC1(C)NC(=O)N(c2ccc([N+](=O)[O-])c(C(F)(F)F)c2)C1=O [nilutamide] + c1cc(-c2cnn3cc(-c4ccc(OCCN5CCCCC5)cc4)cnc23)ccn1 [Dorsomorphin] (first compound 1 µM, partner dose 0.4 µM) | 271 |
| C[C@@H]1CCN(C(=O)CC#N)C[C@@H]1N(C)c1ncnc2[nH]ccc12 + c1cc(-c2cnn3cc(-c4ccc(OCCN5CCCCC5)cc4)cnc23)ccn1 [Dorsomorphin] (first compound 1 µM, partner dose 0.4 µM) | 133 |
| NC(=O)Nc1cc(-c2cccc(F)c2)sc1C(=O)N[C@H]1CCCNC1 + O=S(=O)(c1ccccc1)N(CC(F)(F)F)c1ccc(C(O)(C(F)(F)F)C(F)(F)F)cc1 [T0901317] (first compound 0.02 µM, partner dose 1.4 µM) | 145 |
| O=C(Nc1cccc(Cl)c1)Nc1ncc(CCNc2ncnc3ccsc23)s1 + COc1cc(N2CCC(N3CCN(C)CC3)CC2)ccc1Nc1ncc(Cl)c(Nc2ccccc2S(=O)(=O)C(C)C)n1 [NVP-TAE684] (first compound 0.0008 µM, partner dose 0.08 µM) | 152 |
| C[C@]1(c2nc3c(C(N)=O)cccc3[nH]2)CCCN1 [Veliparib] + O=S(=O)(c1ccccc1)N(CC(F)(F)F)c1ccc(C(O)(C(F)(F)F)C(F)(F)F)cc1 [T0901317] (first compound 1.4 µM, partner dose 1.4 µM) | 41.8 |
| Cc1nc(Nc2ncc(C(=O)Nc3c(C)cccc3Cl)s2)cc(N2CCN(CCO)CC2)n1 [dasatanib] + CCc1ccc(CCOc2ccc(CC3SC(=O)NC3=O)cc2)nc1 [pioglitazone] (first compound 0.004 µM, partner dose 2 µM) | 144 |
| CC1(C)NC(=O)N(c2ccc([N+](=O)[O-])c(C(F)(F)F)c2)C1=O [nilutamide] + O=c1cc(-c2cccc3c2Sc2ccccc2S3)oc(N2CCOCC2)c1 [KU55933] (first compound 1 µM, partner dose 1 µM) | 88.6 |
| COc1cc(Nc2ncc(F)c(Nc3ccc4c(n3)NC(=O)C(C)(C)O4)n2)cc(OC)c1OC [Tamatinib] + Oc1nc(-c2ccc(C(F)(F)F)cc2)nc2c1CSCC2 [XAV939] (first compound 0.4 µM, partner dose 2 µM) | 97.6 |
| O=C(CCCCCCC(=O)Nc1ccccc1)NO [vorinostat] + O=C(O)C(=O)Nc1sc2c(c1C(=O)O)CCNC2 [TCS401] (first compound 0.08 µM, partner dose 1.66667 µM) | 123 |

Taken from above for reference:

| Compound | cleaved PARP positive nuclei fraction [%] |
| --- | --- |
| COc1cc(Nc2ncc(F)c(Nc3ccc4c(n3)NC(=O)C(C)(C)O4)n2)cc(OC)c1OC [Tamatinib] + Oc1nc(-c2ccc(C(F)(F)F)cc2)nc2c1CSCC2 [XAV939] (first compound 0.4 µM, partner dose 2 µM) | 97.6 |
| O=C(CCCCCCC(=O)Nc1ccccc1)NO [vorinostat] + O=C(O)C(=O)Nc1sc2c(c1C(=O)O)CCNC2 [TCS401] (first compound 0.08 µM, partner dose 1.66667 µM) | 123 |
